Data published in article PMC8208582, “Crosstalk between H2A variant-specific modifications impacts vital cell functions” (PLoS Genetics, 2021).
Results are given in words; binding and its absence hold for the method and conditions named. Binding seen in cells or lysates may run through a third protein. Some results given as binding are weak or reduced against the parent protein; the word gives no strength.

The chains behind the UniProt entries cited, without tags or fusion partners. Where a name states a change or a piece, a line headed by the entry shows the natural chain unless it says otherwise.
UniProt Q94F49: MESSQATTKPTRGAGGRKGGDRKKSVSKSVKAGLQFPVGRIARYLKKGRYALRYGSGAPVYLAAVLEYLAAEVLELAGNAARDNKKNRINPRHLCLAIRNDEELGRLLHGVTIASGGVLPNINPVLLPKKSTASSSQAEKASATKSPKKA
UniProt Q9FJE8: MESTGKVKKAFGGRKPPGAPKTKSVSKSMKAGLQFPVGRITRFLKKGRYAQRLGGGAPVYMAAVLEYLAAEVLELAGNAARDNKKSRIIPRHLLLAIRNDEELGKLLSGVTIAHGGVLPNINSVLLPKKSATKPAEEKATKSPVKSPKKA

Key:
[1] = target: H2A.W.7 (endogenous, in mononucleosomes) (Arabidopsis (endogenous in leaves)) (UniProt Q94F49); experiment: co-IP; mononucleosomes from MNase digested nuclear extracts of WT Arabidopsis leaves; H2A.W.6 or H2A.W.7 specific antibodies on protein A magnetic beads, overnight 4°C, washes with 300, 500 and 150 mM NaCl; western blot
[2] = target: H2A.W.6 (endogenous, in mononucleosomes) (Arabidopsis (endogenous in leaves)) (UniProt Q9FJE8); experiment: as above

Substance | binding [1] | binding [2]
H2A.W.6 (endogenous, in mononucleosomes) (from UniProt Q9FJE8 1-150) | binds | 
H2A.W.7 (endogenous, in mononucleosomes) (from UniProt Q94F49 1-150) |  | binds
